Assay results published in paper PMC6993221.
Results are given in words; binding and its absence hold for the method and conditions named. In cells and extracts the contact can be indirect. Some binding calls cover weakened binding; strength is not graded here.

Chains of the proteins cited; added tags and fusions are not shown.
UniProt Q9Y496: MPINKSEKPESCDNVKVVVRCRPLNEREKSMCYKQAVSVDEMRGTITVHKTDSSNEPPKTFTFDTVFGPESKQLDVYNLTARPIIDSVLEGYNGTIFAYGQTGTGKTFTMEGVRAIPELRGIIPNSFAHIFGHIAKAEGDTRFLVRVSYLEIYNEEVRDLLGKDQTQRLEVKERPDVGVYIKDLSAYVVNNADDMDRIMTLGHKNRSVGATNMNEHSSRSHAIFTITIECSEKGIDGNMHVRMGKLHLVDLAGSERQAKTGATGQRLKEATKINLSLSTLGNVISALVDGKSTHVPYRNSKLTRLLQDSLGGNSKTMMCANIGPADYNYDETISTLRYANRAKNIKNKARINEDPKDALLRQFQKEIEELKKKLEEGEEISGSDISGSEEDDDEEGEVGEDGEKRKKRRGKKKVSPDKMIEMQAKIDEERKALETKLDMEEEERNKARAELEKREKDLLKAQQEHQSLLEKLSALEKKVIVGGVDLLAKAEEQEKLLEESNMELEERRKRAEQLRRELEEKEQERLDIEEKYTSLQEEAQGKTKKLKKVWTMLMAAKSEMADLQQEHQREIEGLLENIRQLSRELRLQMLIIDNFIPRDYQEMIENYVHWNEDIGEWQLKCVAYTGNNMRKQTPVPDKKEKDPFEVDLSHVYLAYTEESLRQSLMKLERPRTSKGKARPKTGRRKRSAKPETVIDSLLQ
UniProt P10070: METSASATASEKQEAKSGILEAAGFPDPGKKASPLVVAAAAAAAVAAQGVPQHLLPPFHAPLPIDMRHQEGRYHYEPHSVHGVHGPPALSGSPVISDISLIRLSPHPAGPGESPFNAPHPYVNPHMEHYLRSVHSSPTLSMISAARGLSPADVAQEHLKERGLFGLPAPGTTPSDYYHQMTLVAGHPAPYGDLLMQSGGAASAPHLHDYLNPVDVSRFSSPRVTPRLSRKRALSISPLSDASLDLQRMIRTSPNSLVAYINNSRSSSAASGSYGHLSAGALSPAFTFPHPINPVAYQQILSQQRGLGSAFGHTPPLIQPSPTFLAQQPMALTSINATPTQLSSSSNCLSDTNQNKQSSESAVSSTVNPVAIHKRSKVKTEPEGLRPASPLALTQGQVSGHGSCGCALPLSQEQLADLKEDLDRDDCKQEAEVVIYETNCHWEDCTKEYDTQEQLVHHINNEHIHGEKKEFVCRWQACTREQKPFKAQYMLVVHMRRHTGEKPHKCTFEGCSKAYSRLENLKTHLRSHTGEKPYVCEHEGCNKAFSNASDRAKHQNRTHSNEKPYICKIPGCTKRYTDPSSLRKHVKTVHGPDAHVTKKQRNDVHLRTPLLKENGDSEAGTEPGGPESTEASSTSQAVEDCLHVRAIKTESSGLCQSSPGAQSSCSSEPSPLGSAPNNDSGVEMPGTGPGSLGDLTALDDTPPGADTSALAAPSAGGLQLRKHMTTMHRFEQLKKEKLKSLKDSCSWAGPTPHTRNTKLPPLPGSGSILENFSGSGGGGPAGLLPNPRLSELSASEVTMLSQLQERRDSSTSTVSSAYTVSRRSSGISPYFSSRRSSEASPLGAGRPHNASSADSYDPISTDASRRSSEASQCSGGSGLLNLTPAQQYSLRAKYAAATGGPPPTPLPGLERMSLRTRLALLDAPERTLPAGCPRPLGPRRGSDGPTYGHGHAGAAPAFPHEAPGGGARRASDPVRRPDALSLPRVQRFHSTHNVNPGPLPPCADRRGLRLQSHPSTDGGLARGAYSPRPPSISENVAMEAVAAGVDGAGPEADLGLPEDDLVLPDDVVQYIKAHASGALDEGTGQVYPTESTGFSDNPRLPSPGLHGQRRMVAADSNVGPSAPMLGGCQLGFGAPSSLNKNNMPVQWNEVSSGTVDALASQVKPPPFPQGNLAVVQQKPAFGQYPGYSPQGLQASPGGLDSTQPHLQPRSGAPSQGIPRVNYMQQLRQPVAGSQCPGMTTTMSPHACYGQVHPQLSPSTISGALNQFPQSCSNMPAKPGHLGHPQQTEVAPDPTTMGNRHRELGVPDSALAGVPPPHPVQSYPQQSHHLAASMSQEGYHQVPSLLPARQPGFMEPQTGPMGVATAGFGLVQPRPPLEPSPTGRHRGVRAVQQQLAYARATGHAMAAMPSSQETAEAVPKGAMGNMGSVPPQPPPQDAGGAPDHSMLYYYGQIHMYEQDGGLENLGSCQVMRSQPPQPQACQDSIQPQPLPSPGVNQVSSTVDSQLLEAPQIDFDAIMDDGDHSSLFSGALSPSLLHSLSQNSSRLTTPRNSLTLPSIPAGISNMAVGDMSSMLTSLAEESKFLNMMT
UniProt P10071: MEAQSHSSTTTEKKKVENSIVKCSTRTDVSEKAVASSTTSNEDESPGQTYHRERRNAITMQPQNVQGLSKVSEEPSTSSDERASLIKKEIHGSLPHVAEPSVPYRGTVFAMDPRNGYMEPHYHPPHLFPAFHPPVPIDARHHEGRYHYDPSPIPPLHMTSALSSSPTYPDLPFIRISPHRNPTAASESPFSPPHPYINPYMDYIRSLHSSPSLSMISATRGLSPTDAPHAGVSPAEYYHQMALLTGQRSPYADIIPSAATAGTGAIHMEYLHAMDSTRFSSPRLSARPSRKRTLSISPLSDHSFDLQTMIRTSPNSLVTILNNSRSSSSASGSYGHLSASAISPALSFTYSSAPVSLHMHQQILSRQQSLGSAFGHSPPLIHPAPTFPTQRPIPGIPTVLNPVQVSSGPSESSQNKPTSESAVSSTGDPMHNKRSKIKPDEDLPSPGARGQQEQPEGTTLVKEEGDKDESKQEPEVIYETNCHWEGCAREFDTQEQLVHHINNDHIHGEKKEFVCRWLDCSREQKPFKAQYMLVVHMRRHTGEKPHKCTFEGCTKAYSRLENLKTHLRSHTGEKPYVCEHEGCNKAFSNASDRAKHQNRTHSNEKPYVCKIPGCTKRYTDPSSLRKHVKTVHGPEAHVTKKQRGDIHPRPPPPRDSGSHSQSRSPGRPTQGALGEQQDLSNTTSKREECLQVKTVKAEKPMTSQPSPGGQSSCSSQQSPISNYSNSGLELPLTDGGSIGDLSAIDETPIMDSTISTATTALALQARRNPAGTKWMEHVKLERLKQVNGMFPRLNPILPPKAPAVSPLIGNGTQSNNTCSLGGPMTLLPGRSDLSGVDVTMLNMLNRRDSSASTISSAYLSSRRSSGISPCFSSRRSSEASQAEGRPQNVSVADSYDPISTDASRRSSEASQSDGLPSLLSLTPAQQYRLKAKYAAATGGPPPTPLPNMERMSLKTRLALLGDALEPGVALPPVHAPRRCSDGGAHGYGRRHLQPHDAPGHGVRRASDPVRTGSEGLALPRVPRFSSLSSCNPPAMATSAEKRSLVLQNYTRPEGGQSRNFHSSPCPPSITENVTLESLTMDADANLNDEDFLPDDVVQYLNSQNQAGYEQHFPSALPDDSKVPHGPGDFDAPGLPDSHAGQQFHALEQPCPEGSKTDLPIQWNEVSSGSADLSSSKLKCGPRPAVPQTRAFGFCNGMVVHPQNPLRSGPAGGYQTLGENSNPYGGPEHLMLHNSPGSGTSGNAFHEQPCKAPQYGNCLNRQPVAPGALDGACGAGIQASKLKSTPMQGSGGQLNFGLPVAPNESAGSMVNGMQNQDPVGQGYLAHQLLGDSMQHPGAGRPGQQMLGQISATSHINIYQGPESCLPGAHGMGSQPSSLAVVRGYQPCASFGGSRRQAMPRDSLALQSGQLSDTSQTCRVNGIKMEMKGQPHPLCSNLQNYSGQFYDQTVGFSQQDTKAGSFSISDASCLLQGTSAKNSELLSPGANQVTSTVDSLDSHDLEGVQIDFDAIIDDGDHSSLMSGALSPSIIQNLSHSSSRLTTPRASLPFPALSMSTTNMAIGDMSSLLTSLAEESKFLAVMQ

Molecular target: Kinesin family member 3A (KIF3A) (human (endogenous in MRC-5)) (UniProt Q9Y496)
Assay: co-IP; anti-KIF3A immunoprecipitates (Protein A sepharose, overnight, 4 °C) from whole cell lysates (RIPA buffer) of MRC-5 cells untreated or treated with SiO2 for 12 and 48 h; western blot for GLI2 and GLI3; anti-IgG as control

Row | binding | Substance
1 | binds | Glioma-associated oncogene homolog 2, full-length form (GLI2^FL) (from UniProt P10070 1-1586)
2 | binds | Glioma-associated oncogene homolog 3, full-length form (GLI3^FL) (from UniProt P10071 1-1580)
